# Laboratory results published in PubChem BioAssay AID1347423 (Functional Genomics Laboratory (NCATS/FGL), 2020).
# Screen size: about 52,000 sequences; about 210 (0.4%) were called active.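 How the source made its calls: active means gene whose silencing raises cell survival under the drug, median off-target-corrected z-score across its silencing RNAs 2 or more; inactive means the rest.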 This is one part of the list.
# Assay: Resistance to Poly (ADP-Ribose) Polymerase inhibitor: Gene Identification via Genome-wide siRNA Screen
# Conditions: mouse BRCA2 R2336H ES cells, olaparib, CellTiter-Glo viability; active compounds read high
# Outline: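 Mouse BRCA2 R2336H ES cells were reverse-transfected with siRNA (20 nM final), treated at 48 h with 500 nM olaparib, and read by CellTiter-Glo after 72 h. Scores: MAD-based z per siRNA, median per gene, seed off-target correction.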
row,Sequence,z-score
1,GGAUUAGAAGAACUAAGAGTT against 4930418G15Rik,inactive: 0.532
2,CCAGUUUAGUGGCUCUUCCTT against Lrpb7,inactive: 0.415
3,CCUCGUAAGCGUGUGGAUUTT against Gm1100,inactive: -0.36
4,CCUGAGUCUCGGUUCACAATT against Kif12,inactive: -1.37
5,GCUCAUGACCCAUAUGUGGTT against Cryaa,inactive: -0.217
6,CCUGCCCUCUUUUAAAUAATT against Ap3s1,inactive: 0.136
7,GGUCCAUUUUUUGGUGUGCTT against BC051665,inactive: -1.11
8,GGAGCUAAGUCGAAGCUUCTT against Gmppa,inactive: 1.16
9,GGAGACUAAUGAACAGAAATT against Fgd4,inactive: -0.16
10,GCCCAAUUGGCUUUUGUUATT against Olfr1305,inactive: 0.264
11,GCUCUCUGAAAGAGUAUUGTT against Khdrbs2,inactive: -0.0883
12,CCGCCAUGUUCAUUGAAGATT against 2210013K02Rik,inactive: -0.0947
13,GCAACCAUCCAACAACCUGTT against Prkca,inactive: -0.00416
14,GGCCAUCUGUGAAAAAUUCTT against Dhcr24,inactive: 1.4
15,GGAAAAACUGAGAAAACUUTT against 4930404J24Rik,inactive: -0.447
16,GCUCUUGUAAAUUUGUGAATT against Usp10,inactive: -1.02
17,CGUGGAUUACCACCCUAAGTT against Klrc2,inactive: 0.387
18,GGACGUGAAUGUGUUUGACTT against Cyp26b1,inactive: 0.429
19,CGGAGUAAACAAUACAGUCTT against Gnmt,inactive: -0.312
20,CCUUUUAGCUCUGUGUAUUTT against Gldc,inactive: 0.597
21,GGUAUCACAUCAACAGGCCTT against Klk8,inactive: -0.171
22,CCAGUGUUGGUAACAAUAUTT against Stat4,inactive: 0.522
23,GGAUUCCAUGGACAAAACUTT against E030041M21Rik,inactive: 2.17
24,GCAGCUGAGAAAGUCGUUCTT against 2010007H12Rik,inactive: -0.00273
25,GGCUCAAGUUUGGAGUUUUTT against 2410137M14Rik,inactive: 0.411
26,GGUCCAAUUACUGAAGGUUTT against 1700094C09Rik,inactive: -1.52
27,GGAAGAGCAACAUGUUUAATT against 5430400N05Rik,inactive: 0.999
28,CCUCUAAAUCAAUGAGACATT against Zfp30,inactive: 0.568
